According to the supplement of paper PMC10849652:
The other results are listed elsewhere or left out.

Chains of the proteins cited; added tags and fusions are not shown. Lines headed by an entry give the natural chain unless they say otherwise; changes in a name come on top.
UniProt Q969G6: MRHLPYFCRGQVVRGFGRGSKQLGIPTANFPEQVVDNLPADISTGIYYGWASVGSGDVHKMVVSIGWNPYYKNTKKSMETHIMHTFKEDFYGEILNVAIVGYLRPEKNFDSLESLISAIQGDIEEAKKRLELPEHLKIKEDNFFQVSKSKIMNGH
UniProt P84095: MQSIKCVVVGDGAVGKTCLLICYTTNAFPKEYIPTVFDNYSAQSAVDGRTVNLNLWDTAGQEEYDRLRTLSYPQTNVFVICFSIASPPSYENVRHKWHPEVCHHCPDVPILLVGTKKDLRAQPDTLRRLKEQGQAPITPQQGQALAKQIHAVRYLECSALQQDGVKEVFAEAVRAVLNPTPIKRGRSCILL
UniProt Q6JBY9, whole entry, looked up: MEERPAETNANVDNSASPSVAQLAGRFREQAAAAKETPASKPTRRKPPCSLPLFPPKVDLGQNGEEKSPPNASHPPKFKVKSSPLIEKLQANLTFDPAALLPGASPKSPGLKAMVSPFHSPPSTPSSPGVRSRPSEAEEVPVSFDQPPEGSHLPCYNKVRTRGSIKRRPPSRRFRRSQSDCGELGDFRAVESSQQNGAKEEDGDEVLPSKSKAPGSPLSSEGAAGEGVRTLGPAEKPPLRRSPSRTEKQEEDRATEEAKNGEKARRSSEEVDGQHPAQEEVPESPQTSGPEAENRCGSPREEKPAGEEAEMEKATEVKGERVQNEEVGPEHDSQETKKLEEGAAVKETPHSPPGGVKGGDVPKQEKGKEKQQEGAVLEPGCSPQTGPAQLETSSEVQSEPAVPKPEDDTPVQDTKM
UniProt Q9NWS8: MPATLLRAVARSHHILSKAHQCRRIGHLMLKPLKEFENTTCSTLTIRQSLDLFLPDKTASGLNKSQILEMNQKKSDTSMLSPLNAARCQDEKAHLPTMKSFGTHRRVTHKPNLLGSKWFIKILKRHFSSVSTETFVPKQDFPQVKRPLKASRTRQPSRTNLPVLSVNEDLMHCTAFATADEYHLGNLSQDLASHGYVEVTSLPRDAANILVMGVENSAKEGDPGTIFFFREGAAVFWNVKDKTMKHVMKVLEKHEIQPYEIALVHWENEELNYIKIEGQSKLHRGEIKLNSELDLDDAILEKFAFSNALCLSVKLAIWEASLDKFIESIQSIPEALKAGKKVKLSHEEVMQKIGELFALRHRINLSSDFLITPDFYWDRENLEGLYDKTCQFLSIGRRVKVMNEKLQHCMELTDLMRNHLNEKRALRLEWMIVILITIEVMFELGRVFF
UniProt P38159: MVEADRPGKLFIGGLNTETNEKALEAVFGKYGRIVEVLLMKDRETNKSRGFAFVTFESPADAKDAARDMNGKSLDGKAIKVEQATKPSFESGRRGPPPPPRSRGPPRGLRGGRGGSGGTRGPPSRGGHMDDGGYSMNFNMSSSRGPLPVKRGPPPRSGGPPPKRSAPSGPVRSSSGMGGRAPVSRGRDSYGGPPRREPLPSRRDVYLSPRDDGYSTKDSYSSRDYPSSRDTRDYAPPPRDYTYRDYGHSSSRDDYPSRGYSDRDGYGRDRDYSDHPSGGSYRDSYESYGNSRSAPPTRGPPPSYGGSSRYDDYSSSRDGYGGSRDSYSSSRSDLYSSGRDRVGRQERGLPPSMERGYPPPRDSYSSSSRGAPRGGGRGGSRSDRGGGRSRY
UniProt Q9BRS2: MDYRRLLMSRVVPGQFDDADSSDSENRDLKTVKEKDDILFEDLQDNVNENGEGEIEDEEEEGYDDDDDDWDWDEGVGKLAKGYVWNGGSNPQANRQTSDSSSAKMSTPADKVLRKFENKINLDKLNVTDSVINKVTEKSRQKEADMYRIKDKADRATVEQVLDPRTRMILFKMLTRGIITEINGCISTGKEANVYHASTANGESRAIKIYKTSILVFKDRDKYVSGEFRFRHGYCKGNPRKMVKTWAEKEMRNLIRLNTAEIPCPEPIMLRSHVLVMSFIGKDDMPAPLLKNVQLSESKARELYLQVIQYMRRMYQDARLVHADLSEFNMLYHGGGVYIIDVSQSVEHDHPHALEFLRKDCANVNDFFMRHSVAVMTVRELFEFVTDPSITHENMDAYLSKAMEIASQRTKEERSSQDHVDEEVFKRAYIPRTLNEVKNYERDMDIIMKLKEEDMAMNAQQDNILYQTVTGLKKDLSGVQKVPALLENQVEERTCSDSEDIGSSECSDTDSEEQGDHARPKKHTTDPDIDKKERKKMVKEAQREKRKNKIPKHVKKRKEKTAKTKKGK
UniProt Q96NA2: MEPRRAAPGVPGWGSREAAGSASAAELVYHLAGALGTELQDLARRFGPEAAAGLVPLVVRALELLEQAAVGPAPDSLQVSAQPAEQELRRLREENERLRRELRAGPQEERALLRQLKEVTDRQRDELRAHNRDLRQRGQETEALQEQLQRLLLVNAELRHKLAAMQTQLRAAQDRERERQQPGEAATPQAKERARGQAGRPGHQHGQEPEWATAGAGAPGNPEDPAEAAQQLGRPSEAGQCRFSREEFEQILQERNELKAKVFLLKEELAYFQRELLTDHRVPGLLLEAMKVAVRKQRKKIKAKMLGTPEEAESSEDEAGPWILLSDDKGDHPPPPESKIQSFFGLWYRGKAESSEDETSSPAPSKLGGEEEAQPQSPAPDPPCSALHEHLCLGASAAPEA
UniProt Q9P258, whole entry, looked up: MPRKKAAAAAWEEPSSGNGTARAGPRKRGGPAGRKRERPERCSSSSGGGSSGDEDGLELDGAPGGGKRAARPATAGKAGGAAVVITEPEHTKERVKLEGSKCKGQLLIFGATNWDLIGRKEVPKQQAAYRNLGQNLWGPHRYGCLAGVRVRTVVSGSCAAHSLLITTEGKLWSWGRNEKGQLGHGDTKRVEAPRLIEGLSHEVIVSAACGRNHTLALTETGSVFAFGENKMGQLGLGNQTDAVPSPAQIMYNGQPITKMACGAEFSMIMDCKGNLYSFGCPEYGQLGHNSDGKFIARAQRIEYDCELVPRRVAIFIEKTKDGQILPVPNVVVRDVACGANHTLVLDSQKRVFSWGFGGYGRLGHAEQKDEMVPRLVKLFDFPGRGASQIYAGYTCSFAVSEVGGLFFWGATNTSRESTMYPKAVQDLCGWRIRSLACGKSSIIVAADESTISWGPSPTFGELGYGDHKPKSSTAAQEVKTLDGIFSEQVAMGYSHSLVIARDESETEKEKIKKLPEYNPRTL
UniProt Q06330: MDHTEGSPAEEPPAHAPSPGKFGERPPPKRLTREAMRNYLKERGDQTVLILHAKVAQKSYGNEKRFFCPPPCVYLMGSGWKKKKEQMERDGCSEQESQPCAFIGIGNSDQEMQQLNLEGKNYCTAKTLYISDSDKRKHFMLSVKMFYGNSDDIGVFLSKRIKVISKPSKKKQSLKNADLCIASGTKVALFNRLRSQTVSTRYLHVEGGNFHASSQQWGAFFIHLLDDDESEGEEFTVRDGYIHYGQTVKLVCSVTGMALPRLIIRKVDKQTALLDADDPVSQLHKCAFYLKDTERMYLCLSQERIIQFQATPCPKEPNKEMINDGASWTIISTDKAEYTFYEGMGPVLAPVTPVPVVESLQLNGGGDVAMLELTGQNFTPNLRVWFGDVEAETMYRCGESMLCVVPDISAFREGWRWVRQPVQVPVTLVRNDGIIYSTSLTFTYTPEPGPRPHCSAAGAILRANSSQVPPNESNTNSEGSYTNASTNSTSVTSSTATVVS
UniProt Q9Y3B8: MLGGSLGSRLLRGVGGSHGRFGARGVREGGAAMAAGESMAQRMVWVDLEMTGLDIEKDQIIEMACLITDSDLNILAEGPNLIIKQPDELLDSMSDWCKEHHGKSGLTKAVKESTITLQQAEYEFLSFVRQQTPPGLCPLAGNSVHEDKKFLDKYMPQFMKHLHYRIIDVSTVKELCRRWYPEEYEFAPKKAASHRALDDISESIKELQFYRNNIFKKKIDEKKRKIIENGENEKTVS
UniProt P35241, whole entry, looked up: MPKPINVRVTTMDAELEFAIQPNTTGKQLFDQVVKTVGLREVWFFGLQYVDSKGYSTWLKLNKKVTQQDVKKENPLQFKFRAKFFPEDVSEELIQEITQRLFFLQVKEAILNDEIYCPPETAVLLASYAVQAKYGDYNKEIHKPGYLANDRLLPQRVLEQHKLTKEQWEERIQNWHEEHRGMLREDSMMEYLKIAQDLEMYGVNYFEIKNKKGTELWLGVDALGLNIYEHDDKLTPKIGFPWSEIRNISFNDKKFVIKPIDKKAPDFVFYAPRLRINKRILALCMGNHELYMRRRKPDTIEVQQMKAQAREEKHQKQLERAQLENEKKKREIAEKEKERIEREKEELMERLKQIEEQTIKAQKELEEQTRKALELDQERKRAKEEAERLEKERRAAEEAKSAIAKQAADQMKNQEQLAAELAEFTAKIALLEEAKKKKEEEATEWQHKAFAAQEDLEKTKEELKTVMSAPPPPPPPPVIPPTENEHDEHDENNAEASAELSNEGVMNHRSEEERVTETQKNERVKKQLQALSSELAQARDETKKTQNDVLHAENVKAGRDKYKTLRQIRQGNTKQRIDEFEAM
UniProt P08134, whole entry, looked up: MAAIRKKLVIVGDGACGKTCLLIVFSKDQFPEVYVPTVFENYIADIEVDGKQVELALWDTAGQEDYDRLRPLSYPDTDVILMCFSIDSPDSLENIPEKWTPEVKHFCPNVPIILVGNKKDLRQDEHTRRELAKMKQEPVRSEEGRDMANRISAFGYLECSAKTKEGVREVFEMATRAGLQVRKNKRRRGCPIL
UniProt P62745, whole entry, looked up: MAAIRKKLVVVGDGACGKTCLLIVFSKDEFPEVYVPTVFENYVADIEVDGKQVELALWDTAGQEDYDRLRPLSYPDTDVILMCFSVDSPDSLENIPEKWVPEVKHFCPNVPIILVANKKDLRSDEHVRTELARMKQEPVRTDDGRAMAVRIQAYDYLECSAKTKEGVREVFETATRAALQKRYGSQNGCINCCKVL
UniProt Q9Y508: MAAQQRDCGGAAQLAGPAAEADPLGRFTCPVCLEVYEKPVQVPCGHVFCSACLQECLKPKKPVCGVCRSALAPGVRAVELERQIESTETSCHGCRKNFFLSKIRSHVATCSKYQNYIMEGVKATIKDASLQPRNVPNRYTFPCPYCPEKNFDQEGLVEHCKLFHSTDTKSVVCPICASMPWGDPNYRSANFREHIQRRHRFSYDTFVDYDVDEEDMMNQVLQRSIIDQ
UniProt Q8ND24: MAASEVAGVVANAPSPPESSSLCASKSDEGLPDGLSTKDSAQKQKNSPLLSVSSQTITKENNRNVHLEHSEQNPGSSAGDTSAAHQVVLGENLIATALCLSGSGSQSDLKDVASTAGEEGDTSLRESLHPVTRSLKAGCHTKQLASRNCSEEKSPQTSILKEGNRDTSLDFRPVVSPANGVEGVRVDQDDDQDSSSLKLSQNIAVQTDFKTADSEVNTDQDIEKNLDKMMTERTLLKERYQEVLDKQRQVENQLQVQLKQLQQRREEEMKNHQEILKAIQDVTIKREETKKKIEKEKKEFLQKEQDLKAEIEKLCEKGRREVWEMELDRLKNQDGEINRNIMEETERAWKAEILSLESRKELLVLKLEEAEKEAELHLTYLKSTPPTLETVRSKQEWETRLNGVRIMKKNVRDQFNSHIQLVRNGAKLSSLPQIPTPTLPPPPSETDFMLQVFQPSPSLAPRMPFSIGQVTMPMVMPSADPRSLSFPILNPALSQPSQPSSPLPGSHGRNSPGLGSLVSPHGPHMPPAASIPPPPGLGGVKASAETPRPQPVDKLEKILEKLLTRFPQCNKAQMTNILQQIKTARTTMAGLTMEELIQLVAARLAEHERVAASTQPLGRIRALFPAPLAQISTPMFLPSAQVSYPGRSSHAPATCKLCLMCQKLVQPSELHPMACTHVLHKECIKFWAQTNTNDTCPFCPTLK
UniProt Q00765: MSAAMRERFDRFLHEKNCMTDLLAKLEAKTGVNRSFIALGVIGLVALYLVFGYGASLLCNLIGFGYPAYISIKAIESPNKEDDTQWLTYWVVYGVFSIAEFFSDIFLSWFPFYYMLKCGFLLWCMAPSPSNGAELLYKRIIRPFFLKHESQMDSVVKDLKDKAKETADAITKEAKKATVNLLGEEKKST
UniProt P35249, whole entry, looked up: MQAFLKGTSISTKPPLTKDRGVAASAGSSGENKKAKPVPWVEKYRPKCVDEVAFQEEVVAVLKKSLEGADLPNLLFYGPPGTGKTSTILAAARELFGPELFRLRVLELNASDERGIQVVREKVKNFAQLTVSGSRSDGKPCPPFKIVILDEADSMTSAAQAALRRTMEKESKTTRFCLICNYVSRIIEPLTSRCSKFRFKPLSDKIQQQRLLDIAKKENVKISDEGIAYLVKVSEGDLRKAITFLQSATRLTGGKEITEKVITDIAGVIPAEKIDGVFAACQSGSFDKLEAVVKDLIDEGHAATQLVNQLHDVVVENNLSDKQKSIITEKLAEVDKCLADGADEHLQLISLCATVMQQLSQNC
UniProt Q96DB5: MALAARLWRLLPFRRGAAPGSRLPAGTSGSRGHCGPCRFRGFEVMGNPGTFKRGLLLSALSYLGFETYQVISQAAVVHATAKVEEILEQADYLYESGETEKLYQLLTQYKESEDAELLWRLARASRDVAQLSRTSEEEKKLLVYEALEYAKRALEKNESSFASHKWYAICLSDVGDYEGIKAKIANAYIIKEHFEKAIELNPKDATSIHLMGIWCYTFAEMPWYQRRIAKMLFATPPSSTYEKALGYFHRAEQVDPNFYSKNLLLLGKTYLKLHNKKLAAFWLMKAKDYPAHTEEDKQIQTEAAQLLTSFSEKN

compound: CC[C@@H]1C(=O)N(C)c2cnc(Nc3ccc(C(=O)N[C@H]4CC[C@H](N5CCN(CC6CC6)CC5)CC4)cc3OC)nc2N1C(C)C [volasertib]; assay: log2 fold change, soluble protein after heating vs DMSO (PISA); higher = thermal stabilisation; K562 cells, 10 uM, 30 min; active = over 0.2 and 3.5 SD of the protein, either way, in both replicates (recomputed)
In short: (§1)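 K562 cells at 2×10^6 cells/mL were treated for 30 min with 10 μM compound, and aliquots were heated for 3 min over 48°C-58°C before pooling. Extraction used PBS with 0.5% NP-40 at 4°C, and soluble protein was the supernatant after 21,000xg for 90 min, measured by TMTpro 16plex LC-MS/MS with channel sums equalised. Thermal stability values, relative to control samples and from duplicates, are log2 fold changes.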

Target | log2 fold change
RNF24 isoform 2 (UniProt Q9Y225) | inactive: 0.26
RFK (UniProt Q969G6) | inactive: -0.002
RNF181 (UniProt Q9P0P0) | inactive: 0.073
RHOG (UniProt P84095) | inactive: 0.024
RCSD1 (UniProt Q6JBY9) | inactive: 0.055
RMND1 (UniProt Q9NWS8) | inactive: -0.091
RNF213 isoform 4 (UniProt Q63HN8) | inactive: 0.057
REPS1 (UniProt Q96D71) | inactive: -0.152
REEP3 (UniProt Q6NUK4) | inactive: 0.21
RFX1 (UniProt P22670) | inactive: -0.07
RBMX (UniProt P38159) | inactive: 0.131
RIOK1 (UniProt Q9BRS2) | inactive: 0.071
RHOT2 (UniProt Q8IXI1) | inactive: -0.19
RILP (UniProt Q96NA2) | inactive: -0.112
RHAG (UniProt Q02094) | inactive: -0.295
RCC2 (UniProt Q9P258) | inactive: -0.018
RFT1 (UniProt Q96AA3) | inactive: 0.061
RBPJ (UniProt Q06330) | inactive: 0.039
REXO2 (UniProt Q9Y3B8) | inactive: 0.067

Target | log2 fold change
RDX (UniProt P35241) | inactive: 0.044
RHOC (UniProt P08134) | inactive: 0.023
RNF113A (UniProt O15541) | inactive: 0.015
RBM38 (UniProt Q9H0Z9) | inactive: 0.016
RHOB (UniProt P62745) | inactive: 0.075
RHBDD1 (UniProt Q8TEB9) | inactive: -0.036
RNF114 (UniProt Q9Y508) | inactive: -0.002
RCN2 isoform 2 (UniProt Q14257) | inactive: -0.106
RNF214 (UniProt Q8ND24) | inactive: -0.117
RELN (UniProt P78509) | inactive: 0.037
RCC1L (UniProt Q96I51) | inactive: 0.021
REEP5 (UniProt Q00765) | inactive: 0.051
RMDN3 (UniProt Q96TC7) | inactive: -0.09
RENBP (UniProt P51606) | inactive: 0.151
RFC4 (UniProt P35249) | inactive: -0.054
REEP6 (UniProt Q96HR9) | inactive: 0.061
RMDN1 (UniProt Q96DB5) | inactive: -0.109
RCCD1 (UniProt A6NED2) | inactive: 0.004
REPIN1 isoform 4 (UniProt Q9BWE0) | inactive: 0.027

compound: CC[C@H](C)N1C=C(C2=C(C=C(C=C21)C3=CN=C(C=C3)N4CCNCC4)C(=O)NCC5=C(C=C(NC5=O)C)C)C; assay: as above
In short: as §1

Target | log2 fold change
RNF24 isoform 2 (UniProt Q9Y225) | inactive: -0.145
RFK (UniProt Q969G6) | inactive: 0
RNF181 (UniProt Q9P0P0) | inactive: 0
RHOG (UniProt P84095) | inactive: -0.029
RCSD1 (UniProt Q6JBY9) | inactive: -0.075
RMND1 (UniProt Q9NWS8) | inactive: 0.029
RNF213 isoform 4 (UniProt Q63HN8) | inactive: -0.061
REPS1 (UniProt Q96D71) | inactive: -0.053
REEP3 (UniProt Q6NUK4) | inactive: 0.046
RFX1 (UniProt P22670) | inactive: 0.03
RBMX (UniProt P38159) | inactive: -0.017
RIOK1 (UniProt Q9BRS2) | inactive: -0.046
RHOT2 (UniProt Q8IXI1) | inactive: 0.027
RILP (UniProt Q96NA2) | inactive: 0.008
RHAG (UniProt Q02094) | inactive: -0.038
RCC2 (UniProt Q9P258) | inactive: 0.033
RFT1 (UniProt Q96AA3) | inactive: -0.064
RBPJ (UniProt Q06330) | inactive: -0.007
REXO2 (UniProt Q9Y3B8) | inactive: -0.028

Target | log2 fold change
RDX (UniProt P35241) | inactive: 0.015
RHOC (UniProt P08134) | inactive: -0.024
RNF113A (UniProt O15541) | inactive: -0.035
RBM38 (UniProt Q9H0Z9) | inactive: 0.062
RHOB (UniProt P62745) | inactive: -0.029
RHBDD1 (UniProt Q8TEB9) | inactive: 0.111
RNF114 (UniProt Q9Y508) | inactive: 0.001
RCN2 isoform 2 (UniProt Q14257) | inactive: -0.004
RNF214 (UniProt Q8ND24) | inactive: 0.08
RELN (UniProt P78509) | inactive: 0.218
RCC1L (UniProt Q96I51) | inactive: -0.008
REEP5 (UniProt Q00765) | inactive: -0.049
RMDN3 (UniProt Q96TC7) | inactive: 0.04
RENBP (UniProt P51606) | inactive: -0.01
RFC4 (UniProt P35249) | inactive: 0.028
REEP6 (UniProt Q96HR9) | inactive: -0.09
RMDN1 (UniProt Q96DB5) | inactive: 0.042
RCCD1 (UniProt A6NED2) | inactive: -0.024
REPIN1 isoform 4 (UniProt Q9BWE0) | inactive: 0.001
